Assay results: PubChem BioAssay AID2685 (National Center for Advancing Translational Sciences (NCATS), 2010)
This is one part of the list. The main result of the screen is listed elsewhere. These columns were measured beside it and carry no call. Most of these compounds were active or inconclusive in the main read-out, so they are no random draw. Words in brackets tell the shape of the fitted curve; partial curves, single points and poor fits give uncertain potencies.

Assay: qHTS Assay for Lipid Storage Modulators in Drosophila S3 Cells;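 on cell number change: cells counted by Cell Tracker Red CMTPX staining in the red channel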
Conditions: BODIPY lipid droplet fluorescence, 18-24 h; for cell number change: measured here: cell count max response, cells fed with added oleic acid
Procedure, shortened: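 Laser-scanning cytometry quantifies lipid droplet accumulation (500–530 nm total intensity; droplet/cell object ratio) in oleic acid-fed (400 uM added) Drosophila S3 cells treated with a concentration series. 20 uM Triacsin C defined 100% inhibition.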

[1] = measured here: lipid fluorescence (Fed channel) AC50, cells fed with added oleic acid
[2] = measured here: cell number channel AC50, cells fed with added oleic acid

SMILES	cell number change [%]	AC50 [1]	AC50 [2]
O=C1N(Cc2cccc(Cl)c2)C[C@@H]2C[C@@H](c3c[nH]c4ccccc34)N3CCC[C@@]123	10.4	29.1 µM [falling, single point]	–
COc1cc(/C=N/NC(=O)c2nnn(-c3nonc3N)c2-c2cccs2)ccc1O	-14.4	–	–
N#Cc1c(NC(=O)c2ccco2)sc2c1CCC2	19.5	–	–
CCS(=O)(=O)N1CCC(C(=O)NC2CCCCC2)CC1	-27.2	4.11 µM [falling, full curve]	0.651 µM [falling, full curve, poor fit]
Cc1onc(-c2ccccc2)c1C(=O)NC(C)c1ccc2c(c1)OCO2 (stereo not drawn)	-20.2	23.1 µM [falling, single point]	–
Cc1ccc(-c2ccc(CCC(=O)O)n2NC(=O)c2ccco2)cc1	-36.7	0.291 µM [falling, full curve, poor fit]	0.291 µM [falling, full curve]
CCN(CC)CCN(C(=O)c1ccc(S(=O)(=O)N(C)C2CCCCC2)cc1)c1nc2ccc(OC)cc2s1	5.49	–	–
Fc1ccccc1-c1nc2nc3ccccc3nc2n1CC1CCCO1 (stereo not drawn)	18.2	20.6 µM [rising, single point]	–
N#C/C(=C\c1ccc(-c2cccc([N+](=O)[O-])c2)o1)C(=O)N1CCOCC1	5.94	0.82 µM [rising, single point]	–
O=C(c1ccc(F)cc1)N(C(=O)c1ccc(F)cc1)c1ncccn1	8.21	0.58 µM [falling, full curve]	–
CC(=O)c1ccc(N2CCN(CCC#N)CC2)c(F)c1	–	0.731 µM [falling, single point]	–
COc1ccccc1Nc1ncnc2ccccc12	1.47	–	–
CCOc1ccc(S(=O)(=O)N2CCCCC2)cc1NS(=O)(=O)c1cccs1	-91.2	20.6 µM [falling, partial curve]	8.2 µM [falling, partial curve]
Cc1cc(-n2c(SCC(=O)NCCC3=CCCCC3)nc3n[nH]c(C)c3c2=N)ccc1Cl	-30.6	18.4 µM [falling, single point]	13 µM [falling, partial curve]
O=C(NCC(c1ccco1)N1CCN(c2ccc(F)cc2)CC1)c1ccco1 (stereo not drawn)	–	4.11 µM [rising, single point]	–
CCn1ncc(C2=NOC(C(=O)Nc3c(C)nn(Cc4ccc(F)cc4)c3C)C2)c1C (stereo not drawn)	1.16	0.517 µM [rising, full curve, poor fit]	–
CCCCOc1ccc(CSc2nc(C)[nH]c2[N+](=O)[O-])cc1[N+](=O)[O-]	–	4.61 µM [rising, partial curve]	5.8 µM [rising, single point]
Cn1c(C=O)c(C#Cc2ccccc2)c2ccccc21	-27.3	4.61 µM [falling, single point]	–
CC(=O)Nc1ccc(OC(=O)c2ccc(Br)c([N+](=O)[O-])c2)cc1	-1.1	0.411 µM [falling, partial curve]	–
CCCC[C@]12Cc3c(ccc4ccccc34)C(O1)C1=C(O2)C(=O)c2ccccc2C1=O	22.1	–	0.133 µM [rising, full curve, poor fit]

SMILES	cell number change [%]	AC50 [1]	AC50 [2]
COc1cc2c(cc1OC)CN(C(=O)Cn1ccccc1=O)CC2	10	29.1 µM [falling, single point]	–
CCOC(=O)C1=C(O)CSC1=Nc1ccc(Cl)cc1	-6.09	–	–
O=C(Nc1cccc2ccccc12)c1ccc([N+](=O)[O-])cc1	–	29.1 µM [falling, single point]	–
O=c1c2c3c(sc2nc(N2CCNCC2)n1CCc1ccccc1)CCCCC3	–	0.00517 µM [rising, full curve, poor fit]	–
Cc1cccc(N(C(=O)c2sc(C)nc2C)C(C(=O)NCC2CCCO2)c2ccccc2)c1 (stereo not drawn)	7.5	–	–
CSc1c(C#N)c(N)nc2sc(C(=O)c3ccc(Cl)c(Cl)c3)c(N)c12	13.5	–	2.91 µM [rising, single point]
O=C(CN(C(=O)CCC(=O)Nc1nccs1)c1cccc(F)c1)NCC1CCCO1 (stereo not drawn)	10.1	0.82 µM [rising, full curve]	–
CCN(CC)CCCn1c2c(c(SCC(=O)Nc3ccc4c(c3)OCO4)nc1=O)CCC2	175	–	25.9 µM [rising, partial curve, poor fit]
CN(C)c1ccc(/C=N/NC(=O)CCc2c[nH]c3ccccc23)cc1	3.26	3.26 µM [falling, partial curve]	–
Cc1nc(-c2ccccc2)cc(N2CCCC2)n1	0.676	–	–
COC(=O)c1[nH]nc(C(=O)OC(C)(C)C)c1-c1ccccc1	-59.4	–	29.1 µM [falling, single point]
O=C(COc1ccccc1)N(Cc1ccco1)C1CCS(=O)(=O)C1 (stereo not drawn)	39.5	–	29.1 µM [rising, single point]
CCOC(=O)N1CCN(C(=O)Cn2ncn3nc(-c4cccs4)cc3c2=O)CC1	8.12	32.6 µM [rising, single point]	–
COc1ccc(COC(=O)N/N=C/c2cccs2)cc1	-9.94	0.146 µM [rising, full curve]	–
O=S(=O)(Nc1cccc(S(=O)(=O)N2CCOCC2)c1)c1ccc2c(c1)OCCO2	–	6.51 µM [falling, single point]	6.51 µM [falling, single point]
CCN(CC(=O)Nc1ccc(OC)cc1)C(=O)Cc1ccsc1	-17.6	14.6 µM [rising, partial curve, poor fit]	–
Fc1ccc(C(Nc2ccccn2)c2c[nH]c3ccccc23)cc1 (stereo not drawn)	-29.3	1.3 µM [falling, full curve, poor fit]	–
COc1ccc(-c2cc3nc(C)cc(C)n3n2)cc1	–	7.31 µM [falling, single point]	6.51 µM [rising, single point]
COc1ccc(C2=NOC(Cn3nc(C(=O)NCc4ccc(OC(F)(F)F)cc4)cc3-c3ccccc3)C2)cc1 (stereo not drawn)	-31.4	–	9.2 µM [falling, partial curve]
Cc1ccc(C(=O)O)cc1-c1ccc(/C=C2/NC(=O)N(c3ccccc3)C2=O)o1	35.6	–	–

In another format: entries from further up.
CSc1c(C#N)c(N)nc2sc(C(=O)c3ccc(Cl)c(Cl)c3)c(N)c12
  cell number change [%]: 13.5; AC50 [2]: 2.91 µM [rising, single point]
Cc1nc(-c2ccccc2)cc(N2CCCC2)n1
  cell number change [%]: 0.676

Further records:

SMILES	cell number change [%]	AC50 [1]	AC50 [2]
Cc1ccc(Cl)cc1N1CCN(CC(O)COC(C)C)CC1 (stereo not drawn)	0.594	–	–
COc1cc(OC)cc(-c2nnc(SCc3cccc(C(=O)O)c3)o2)c1	70.9	0.58 µM [rising, single point]	29.1 µM [rising, single point]
COc1ccc(C(=O)NCCc2nnc(SCC(=O)Nc3ccccc3C(C)C)n2C)cc1	51.6	–	20.6 µM [rising, single point]
Cc1nn(CC(=O)Nc2ccc3c(c2)CCC3)c(C)c1[N+](=O)[O-]	-16.2	0.517 µM [rising, full curve, poor fit]	–
Cn1c(CNC(=O)CNS(=O)(=O)c2ccccc2)cc(=O)n(C)c1=O	–	20.6 µM [rising, single point]	–
C=CCN=C1N[C@@H](c2cccc(C(F)(F)F)c2)C(C(=O)OC)=C(C)N1CC	-0.299	20.6 µM [rising, single point]	–
CCCCn1c(N)c(N(CC)C(=O)c2ccc(C#N)cc2)c(=O)[nH]c1=O	9.24	6.51 µM [falling, single point]	–
O=C(O)CC/C(=N/NC(=O)c1cccs1)c1ccccc1	12.3	13 µM [rising, single point]	–
CCCc1ccc2oc(C(=O)N3CCNC(=O)C3CC(=O)OC)c(C)c2c1 (stereo not drawn)	-6.74	0.92 µM [falling, partial curve]	–
COC(=O)C1=C(C)NC(=S)NC1/C=C/c1ccccc1 (stereo not drawn)	28	25.9 µM [rising, partial curve]	–
COc1ccc2c3c(c(=O)oc2c1)C1O[C@](CCCCN2C(=O)c4ccccc4C2=O)(Cc2c1ccc1ccccc21)O3	11	5.31 µM [rising, single point]	0.0168 µM [rising, partial curve, poor fit]
O=C(CSc1nnnn1Cc1ccccc1)c1ccccc1	-17.7	14.6 µM [falling, partial curve, poor fit]	–
O=C(NCC1COc2ccccc2O1)c1ccc(Cl)c(S(=O)(=O)N2CCCC2)c1 (stereo not drawn)	-48.4	0.0058 µM [falling, full curve, poor fit]	7.31 µM [falling, partial curve]
CCOc1c(Cl)cc(Cl)cc1CNCCNCCO	-21.5	–	0.103 µM [falling, full curve, poor fit]
O=C(Nc1cc2c3c(c1)CC(=O)N3CCC2)c1ccccc1F	–	–	2.06 µM [rising, partial curve]
CCc1ccc(NC(=O)C(=O)NNC(=O)c2cccs2)cc1	5.56	29.1 µM [falling, single point]	–
O=C(OCC(=O)N1CCN(c2ccccc2)CC1)c1ccc(Cl)nc1	-99.5	6.51 µM [rising, full curve, poor fit]	29.1 µM [falling, partial curve, poor fit]
COc1ccc(OCC(O)CN(CC(O)COc2ccc(OC)cc2)c2cccc(O)c2)cc1 (stereo not drawn)	-24.2	0.13 µM [falling, full curve, poor fit]	–
COc1ccc(OCc2cccc(C(=O)NN)c2)cc1	28.1	0.82 µM [falling, full curve]	–
COc1cc(NS(=O)(=O)c2ccc(NC(=S)NC(=O)C3CCCC3)cc2)nc(OC)n1	6.42	25.9 µM [falling, single point]	–
